Laboratory results: PubChem BioAssay AID274 (DTP/NCI, 2004)
The list does not hold the whole screen: it gathers tests that were run many times, whatever their T/C, doses with no T/C, and many T/C values between a quarter and a half above the control. Further doses and runs are listed elsewhere. T/C is the treated group as % of the vehicle group. Some entries give survivors of the animals treated and no T/C: the source files T/C as zero there, which appears to mark a toxic dose or a test without result, not a measured value. Some doses without a T/C left all or most animals alive at the check, yet need not have been tolerated: survival well below the control is almost never listed, so the zero probably covers shortened survival too. Counts of survivors are from the toxicity check (mostly the fifth day) where no day follows; animals may have died later. Schedules are NCI's codes, taken here to give the interval after Q, in days (D) or hours (H), and the number of doses after X. Some doses were run more than once; the results are listed from low to high. For survival time, the PubChem record calls one and a half times the control and up active, and a quarter to a half above the control has no call in these data; cut-offs in other NCI protocols can differ. Numbered stars: 1 amine (or outer) side, 2 acyl side, 3 side chain; on linkers, the order of the positions; unused ones are H or OH. Bridge positions count the residues as written; N and C are the ends. Square brackets hold non-standard residues; d marks the D form. Peptide text beside a SMILES is read from it. I, II: the chains in the order shown. Actinocin(9to1) = Cc1c2oc3c(C)ccc(C(=O)[*:1])c3nc-2c(C(=O)[*:2])c(N)c1=O; aThr = C[C@H](O)[C@H](N)C(=O)O; NMeV = CN[C@H](C(=O)O)C(C)C; Sar = CNCC(=O)O

Test system: BDF1 mice, Lewis lung carcinoma iv, survival T/C
Assay: NCI In Vivo Anticancer Drug Screen. Data for tumor model Lewis Lung Carcinoma (intravenous) in B6D2F1 (BDF1) mice
Conditions: higher T/C = longer survival
Method: The antitumor activity of compounds was measured in mice bearing transplantable tumors. Survival or tumor size were measured and the results are expressed as the measurement made in the treated group (T) divided by the measurement made in the vehicle treated control group (C). The tumor model used in this assay is Lewis Lung Carcinoma (intravenous) in B6D2F1 (BDF1) mice

[1] = T/C endpoint: median survival time, dose: 400.0 mg/kg/injection, schedule: Q01DX009 (ip), vehicle: Klucel (hydroxypropylcellulose) (HPC)
[2] = T/C endpoint: median survival time, dose: 400.0 mg/kg/injection, schedule: Q01DX009 (ip), vehicle: saline
[3] = T/C endpoint: median survival time, dose: 50.0 mg/kg/injection, schedule: Q01DX009 (ip), vehicle: saline with Tween-80
[4] = T/C endpoint: median survival time, dose: 100.0 mg/kg/injection, schedule: Q01DX009 (ip), vehicle: saline with Tween-80
[5] = T/C endpoint: median survival time, dose: 200.0 mg/kg/injection, schedule: Q01DX009 (ip), vehicle: saline with Tween-80
[6] = T/C endpoint: median survival time, dose: 6.25 mg/kg/injection, schedule: Q01DX009 (ip), vehicle: saline with Tween-80
[7] = T/C endpoint: median survival time, dose: 12.5 mg/kg/injection, schedule: Q01DX009 (ip), vehicle: saline with Tween-80
[8] = T/C endpoint: median survival time, dose: 25.0 mg/kg/injection, schedule: Q01DX009 (ip), vehicle: saline with Tween-80
[9] = T/C endpoint: median survival time, dose: 50.0 mg/kg/injection, schedule: Q01DX009 (ip), vehicle: suspension in saline
[10] = T/C endpoint: median survival time, dose: 800.0 mg/kg/injection, schedule: Q01DX009 (ip), vehicle: Klucel (hydroxypropylcellulose) (HPC)
[11] = T/C endpoint: median survival time, dose: 100.0 mg/kg/injection, schedule: Q01DX009 (ip), vehicle: Klucel (hydroxypropylcellulose) (HPC)
[12] = T/C endpoint: median survival time, dose: 200.0 mg/kg/injection, schedule: Q01DX009 (ip), vehicle: Klucel (hydroxypropylcellulose) (HPC)
[13] = T/C endpoint: median survival time, dose: 8.0 mg/kg/injection, schedule: Q01DX009 (ip), vehicle: saline
[14] = T/C endpoint: median survival time, dose: 10.0 mg/kg/injection, schedule: Q04DX003 (ip), vehicle: saline

With `CC1CN1C(=O)NCCCCCCNC(=O)N1CC1C` (stereo unspecified) the T/C (T/C endpoint: median survival time, dose: 5.0 mg/kg/injection, schedule: Q01DX009 (ip), vehicle: saline + alcohol) was 130 % of control, the T/C (T/C endpoint: median survival time, dose: 10.0 mg/kg/injection, schedule: Q01DX009 (ip), vehicle: saline + alcohol) was 141 % of control and the survivor count (T/C endpoint: median survival time, dose: 20.0 mg/kg/injection, schedule: Q01DX009 (ip), vehicle: saline + alcohol) was 10 of 10. For the same compound, the survivor count (T/C endpoint: median survival time, dose: 40.0 mg/kg/injection, schedule: Q01DX009 (ip), vehicle: saline + alcohol) was 7 of 10.

`COc1cc(OC)c(OC)cc1/C=C\c1ccnc2ccccc12` was tested, and the survivor count [1] was 2 of 10.

In the case of `CC(C)C(N)C(=O)Nc1nncs1` (stereo unspecified), the survivor count [2] is reported as 8 of 10.

For `CN=C(N)N/N=C(\C)c1ccc2oc3ccc(/C(C)=N/NC(N)=NC)cc3c2c1`, the survivor count [3] was 10 of 10, the survivor count [4] was 5 of 10 and the survivor count [5] was 0 of 10.

In the case of `Cn1cnc([N+](=O)[O-])c1Sc1nc(N)nc2c1ncn2C1OC(CO)C(O)C1O` (stereo unspecified), the survivor count [6] is reported as 10 of 10, the survivor count [7] is reported as 10 of 10 and the survivor count (T/C endpoint: median survival time, dose: 12.5 mg/kg/injection, schedule: Q01DX009 (ip), vehicle: suspension in saline) is reported as 10 of 10. For the same compound, the survivor count [8] was 10 of 10, the survivor count (T/C endpoint: median survival time, dose: 25.0 mg/kg/injection, schedule: Q01DX009 (ip), vehicle: suspension in saline) was 10 of 10 and the survivor count [9] was 10 of 10.

With `Cc1c2oc3c(C)ccc(C(=O)N[C@@H]4C(=O)N[C@H](C(C)C)C(=O)N5CCC[C@H]5C(=O)N(C)CC(=O)N(C)[C@@H](C(C)C)C(=O)O[C@H]4C)c3nc-2c(C(=O)N[C@@H]2C(=O)N[C@H](C(C)C)C(=O)N3CCC[C@H]3C(=O)N(C)CC(=O)N(C)[C@@H](C(C)C)C(=O)O[C@H]2C)c(N)c1=O` (I: [aThr][dV]P[Sar][NMeV] / II: [aThr][dV]P[Sar][NMeV]; ester I:1-I:C, II:1-II:C; linker I:N-II:N via Actinocin(9to1)) the survivor count (T/C endpoint: median survival time, dose: 500.0 micrograms/kg/injection, schedule: Q04DX003 (ip), vehicle: saline + alcohol) was 8 of 8, the survivor count (T/C endpoint: median survival time, dose: 720.0 micrograms/kg/injection, schedule: Q01DX001 (ip), vehicle: saline + alcohol) was 3 of 8 and the survivor count (T/C endpoint: median survival time, dose: 1200.0 micrograms/kg/injection, schedule: Q01DX001 (ip), vehicle: saline + alcohol) was 0 of 8.

In the case of `NC(=O)c1[nH]nc(C2OC(CO)C(O)C2O)c1O` (stereo unspecified), the survivor count (T/C endpoint: median survival time, dose: 1250.0 micrograms/kg/injection, schedule: Q01DX009 (ip), vehicle: water) is reported as 10 of 10.

With `Nc1cc2[nH]cnc2c(=O)[nH]1` the survivor count (T/C endpoint: mean survival time, dose: 170.0 mg/kg/injection, schedule: Q01DX009 (ip), vehicle: Klucel (hydroxypropylcellulose) (HPC)) was 10 of 10.

In the case of `CSc1ccc2c(c1)C(N1CCN(C)CC1)Cc1ccccc1S2` (stereo unspecified), the survivor count (T/C endpoint: median survival time, dose: 3.12 mg/kg/injection, schedule: Q01DX009 (ip), vehicle: saline with Tween-80) is reported as 6 of 10, the survivor count [6] is reported as 8 of 10 and the survivor count [7] is reported as 2 of 10. For the same compound, the survivor count [8] was 0 of 10 and the survivor count [3] was 0 of 10.

For `O=Cc1ccc(C=O)c(Cl)c1`, the survivor count [10] was 7 of 10.

`CC(C)C(=O)OCC1OC(n2cnc3c(=S)nc(N)[nH]c32)C(OC(=O)C(C)C)C1OC(=O)C(C)C` (stereo unspecified) was tested, and the survivor count (T/C endpoint: median survival time, dose: 12.5 mg/kg/injection, schedule: Q01DX009 (ip), vehicle: Klucel (hydroxypropylcellulose) (HPC)) was 10 of 10 and the survivor count (T/C endpoint: median survival time, dose: 25.0 mg/kg/injection, schedule: Q01DX009 (ip), vehicle: Klucel (hydroxypropylcellulose) (HPC)) was 8 of 10.

In the case of `O[C@H](CN1CC1)[C@@H](O)CN1CC1`, the T/C (T/C endpoint: median survival time, dose: 0.5 mg/kg/injection, schedule: Q01DX009 (ip), vehicle: saline) is reported as 134 % of control, the survivor count (T/C endpoint: median survival time, dose: 1.0 mg/kg/injection, schedule: Q01DX009 (ip), vehicle: saline) is reported as 10 of 10 and the survivor count (T/C endpoint: median survival time, dose: 2.0 mg/kg/injection, schedule: Q01DX009 (ip), vehicle: saline) is reported as 10 of 10.

`c1ccc(CN2CCOC2)cc1` was tested, and the survivor count (T/C endpoint: median survival time, dose: 200.0 mg/kg/injection, schedule: Q01DX009 (ip), vehicle: saline) was 5 of 10 and the survivor count [2] was 0 of 10.

For `COc1cc(C(=O)c2cocc2C(=O)c2ccc3c(c2)OCO3)cc(OC)c1OC`, the survivor count [11] was 9 of 10, the survivor count [12] was 9 of 10 and the survivor count [10] was 2 of 10.

For `Nc1ncnc2c1ncn2C1C=C(CO)C(O)C1O` (stereo unspecified), the survivor count [13] was 0 of 10 and the survivor count (T/C endpoint: median survival time, dose: 16.0 mg/kg/injection, schedule: Q01DX009 (ip), vehicle: saline) was 0 of 10.

For `COC1/C=C\C=C(/C)C(=O)NC2=CC(=O)C=C(C2=O)C(OC)C(C)CC(OC)C(OC)C(C)/C=C(/C)C1OC(N)=O` (stereo unspecified), the survivor count (T/C endpoint: median survival time, dose: 3.0 mg/kg/injection, schedule: Q01DX009 (ip), vehicle: Klucel (hydroxypropylcellulose) (HPC)) was 10 of 10 and the survivor count (T/C endpoint: median survival time, dose: 6.0 mg/kg/injection, schedule: Q01DX009 (ip), vehicle: Klucel (hydroxypropylcellulose) (HPC)) was 1 of 10.

`Cc1cc(/C=C/c2cc[n+](C)c3ccccc23)c(O)c2ncccc12` was tested, and the survivor count [8] was 10 of 10.

For `Cc1ccc(S(=O)(=O)NC(=O)C2C(=O)CC3(CCCCC3)CC2=O)cc1`, the survivor count [12] was 6 of 10 and the survivor count [1] was 0 of 10.

In the case of `CCCCc1ccc2nc(NC(=O)OC)[nH]c2c1`, the survivor count [5] is reported as 10 of 10.

For `CC1=C(/C=C/C(C)=C/C=C/C(C)=C/C(=O)O)C(C)(C)CCC1`, the T/C (T/C endpoint: median survival time, dose: 64.0 mg/kg/injection, schedule: Q01DX005 (ip), vehicle: saline with Tween-80) was 140 % of control.

In the case of `N[C@@H](Cc1ccc(N(CCCl)CCCl)cc1)C(=O)O`, the T/C (T/C endpoint: median survival time, dose: 4.0 mg/kg/injection, schedule: Q01DX009 (ip), vehicle: saline) is reported as 148 % of control, the T/C (T/C endpoint: median survival time, dose: 4.9 mg/kg/injection, schedule: Q04DX003 (ip), vehicle: saline) is reported as 132 % of control and the survivor count [13] is reported as 8 of 10 and 9 of 10. For the same compound, the T/C [14] was 127 % of control, the survivor count [14] was 8 of 8 and the survivor count (T/C endpoint: median survival time, dose: 14.3 mg/kg/injection, schedule: Q04DX003 (ip), vehicle: saline) was 8 of 8. The survivor count (T/C endpoint: median survival time, dose: 15.0 mg/kg/injection, schedule: Q04DX003 (ip), vehicle: saline) was 8 of 8 and the survivor count (T/C endpoint: median survival time, dose: 20.4 mg/kg/injection, schedule: Q04DX003 (ip), vehicle: saline) was 5 of 8.

In the case of `COc1ccc(C(N)=O)cc1N=NN(C)C`, the survivor count (T/C endpoint: median survival time, dose: 50.0 mg/kg/injection, schedule: Q01DX009 (ip), vehicle: Klucel (hydroxypropylcellulose) (HPC)) is reported as 9 of 10 and the survivor count [11] is reported as 7 of 10.

With `Nc1ccn(C2OC(COC(=O)C34CC5CC(CC(C5)C3)C4)C(O)C2O)c(=O)n1` (stereo unspecified) the T/C [8] was 130 % of control, the survivor count [3] was 10 of 10 and the survivor count [4] was 9 of 10.

For `CCc1ncnc2cc(OCC3CO3)c(OC)cc12` (stereo unspecified), the survivor count [9] was 10 of 10 and the survivor count (T/C endpoint: median survival time, dose: 100.0 mg/kg/injection, schedule: Q01DX009 (ip), vehicle: suspension in saline) was 7 of 10.

With `C/C=C/C1=CC(=O)C(O)C1O` (stereo unspecified) the survivor count (T/C endpoint: median survival time, dose: 200.0 mg/kg/injection, schedule: Q01DX009 (ip), vehicle: water) was 6 of 10.

In the case of `CC(=O)O[C@H]1C(=O)[C@@]2(C)[C@H]([C@H](OC(=O)c3ccccc3)[C@]3(O)C[C@H](OC(=O)[C@H](O)[C@@H](NC(=O)c4ccccc4)c4ccccc4)C(C)=C1C3(C)C)[C@]1(OC(C)=O)CO[C@@H]1C[C@@H]2O`, the survivor count (T/C endpoint: median survival time, dose: 72.0 mg/kg/injection, schedule: Q04DX003 (ip), vehicle: Klucel (hydroxypropylcellulose) (HPC)) is reported as 7 of 8 and the survivor count (T/C endpoint: median survival time, dose: 120.0 mg/kg/injection, schedule: Q04DX003 (ip), vehicle: Klucel (hydroxypropylcellulose) (HPC)) is reported as 8 of 8.

With `COc1ccc(-c2csc(=[N+]3CCCCC3)s2)cc1` the survivor count (T/C endpoint: median survival time, dose: 50.0 mg/kg/injection, schedule: Q01DX009 (ip), vehicle: water) was 0 of 10.

For `CC(=O)OC1C2(CC3N4C(=O)C5(CO)SSC4(CC31O)C(=O)N5C)OC(C)C(C)(C)C2=O` (stereo unspecified), the T/C (T/C endpoint: median survival time, dose: 0.31 mg/kg/injection, schedule: Q01DX009 (ip), vehicle: saline) was 145 % of control and the T/C (T/C endpoint: median survival time, dose: 1.25 mg/kg/injection, schedule: Q01DX009 (ip), vehicle: saline) was 135 % of control.
